Some of the results follow.
How the values were obtained:
Assay in all cases: log2 fold change, soluble protein after heating vs DMSO (PISA); higher = thermal stabilisation; K562 cells, 10 uM, 30 min; active = over 0.2 and 3.5 SD of the protein, either way, in both replicates (recomputed)
bafetinib = compound: Cc1ccc(NC(=O)c2ccc(CN3CC[C@H](N(C)C)C3)c(C(F)(F)F)c2)cc1Nc1nccc(-c2cncnc2)n1 [bafetinib]
How it was run: (§1)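 For each measurement, 10 μM compound was applied for 30 min to K562 cells at 2×10^6 cells/mL. Aliquots were heated for 3 min across 48°C-58°C, pooled, and extracted in PBS with 0.5% NP-40 at 4°C; the supernatant after 21,000xg for 90 min was soluble protein. This was quantified by TMTpro 16plex LC-MS/MS with channel sums equalised, and thermal stability was reported relative to control samples from duplicates, on a log2 fold-change scale.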

Protein sequences, listed by entry. Tags and fused reporters are not part of them. Lines headed by an entry give the natural chain unless they say otherwise; changes in a name come on top.
UniProt P63027, whole entry, looked up: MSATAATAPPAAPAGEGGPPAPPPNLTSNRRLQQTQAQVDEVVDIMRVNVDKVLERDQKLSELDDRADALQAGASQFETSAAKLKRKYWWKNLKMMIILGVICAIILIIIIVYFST
UniProt Q70J99: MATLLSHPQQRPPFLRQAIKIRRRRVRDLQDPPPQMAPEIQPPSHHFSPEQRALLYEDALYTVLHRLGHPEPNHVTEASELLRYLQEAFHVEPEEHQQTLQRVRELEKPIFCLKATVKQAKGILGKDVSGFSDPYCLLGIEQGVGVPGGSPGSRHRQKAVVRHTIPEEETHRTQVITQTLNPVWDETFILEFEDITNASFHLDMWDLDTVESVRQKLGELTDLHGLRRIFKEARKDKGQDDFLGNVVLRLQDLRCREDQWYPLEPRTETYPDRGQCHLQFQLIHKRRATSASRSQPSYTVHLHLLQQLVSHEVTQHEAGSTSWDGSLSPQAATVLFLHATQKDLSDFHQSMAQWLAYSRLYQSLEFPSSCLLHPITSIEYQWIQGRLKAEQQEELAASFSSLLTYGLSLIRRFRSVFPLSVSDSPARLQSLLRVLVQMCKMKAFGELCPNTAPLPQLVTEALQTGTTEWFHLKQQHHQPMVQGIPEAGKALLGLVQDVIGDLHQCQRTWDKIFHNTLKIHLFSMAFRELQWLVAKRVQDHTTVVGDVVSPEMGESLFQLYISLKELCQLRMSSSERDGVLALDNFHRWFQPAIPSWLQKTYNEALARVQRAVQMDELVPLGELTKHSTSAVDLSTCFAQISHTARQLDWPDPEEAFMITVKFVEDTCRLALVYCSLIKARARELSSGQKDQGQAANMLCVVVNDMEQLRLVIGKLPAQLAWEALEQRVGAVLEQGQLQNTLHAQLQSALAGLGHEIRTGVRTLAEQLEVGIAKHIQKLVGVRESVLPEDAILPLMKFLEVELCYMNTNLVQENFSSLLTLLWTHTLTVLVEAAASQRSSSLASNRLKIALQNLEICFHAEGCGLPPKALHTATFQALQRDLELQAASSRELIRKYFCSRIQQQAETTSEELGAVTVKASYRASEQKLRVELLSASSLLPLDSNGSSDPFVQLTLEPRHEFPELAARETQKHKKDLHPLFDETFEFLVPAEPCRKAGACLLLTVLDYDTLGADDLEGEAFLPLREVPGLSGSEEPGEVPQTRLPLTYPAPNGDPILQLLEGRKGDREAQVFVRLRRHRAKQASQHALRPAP
UniProt Q8TAA9: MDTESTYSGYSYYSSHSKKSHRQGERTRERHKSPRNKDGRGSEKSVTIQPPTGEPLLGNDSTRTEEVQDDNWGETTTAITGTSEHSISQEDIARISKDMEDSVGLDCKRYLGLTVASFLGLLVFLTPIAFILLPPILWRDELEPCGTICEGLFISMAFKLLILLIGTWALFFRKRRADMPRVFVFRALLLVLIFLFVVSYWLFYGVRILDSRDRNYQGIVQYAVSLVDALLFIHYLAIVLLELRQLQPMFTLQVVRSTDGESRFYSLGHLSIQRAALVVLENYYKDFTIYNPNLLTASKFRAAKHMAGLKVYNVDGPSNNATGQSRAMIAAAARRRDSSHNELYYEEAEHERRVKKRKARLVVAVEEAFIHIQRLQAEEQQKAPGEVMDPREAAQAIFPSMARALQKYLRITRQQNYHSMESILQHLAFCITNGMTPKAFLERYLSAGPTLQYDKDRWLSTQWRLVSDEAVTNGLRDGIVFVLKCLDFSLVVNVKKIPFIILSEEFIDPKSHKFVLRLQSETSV
UniProt P11441: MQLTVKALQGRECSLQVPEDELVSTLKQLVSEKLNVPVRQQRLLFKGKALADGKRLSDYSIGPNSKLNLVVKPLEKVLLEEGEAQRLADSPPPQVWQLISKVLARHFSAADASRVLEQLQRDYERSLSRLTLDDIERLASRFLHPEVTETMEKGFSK
UniProt O14562: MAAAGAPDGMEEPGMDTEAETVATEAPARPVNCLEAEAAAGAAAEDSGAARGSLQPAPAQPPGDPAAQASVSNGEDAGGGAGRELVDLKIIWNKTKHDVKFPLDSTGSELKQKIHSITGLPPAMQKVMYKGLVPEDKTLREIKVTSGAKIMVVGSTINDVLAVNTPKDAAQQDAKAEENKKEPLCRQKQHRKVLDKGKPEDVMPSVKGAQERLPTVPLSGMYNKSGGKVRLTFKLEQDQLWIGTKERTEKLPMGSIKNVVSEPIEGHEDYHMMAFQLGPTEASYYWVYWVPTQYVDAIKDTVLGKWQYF
UniProt Q9BVJ6: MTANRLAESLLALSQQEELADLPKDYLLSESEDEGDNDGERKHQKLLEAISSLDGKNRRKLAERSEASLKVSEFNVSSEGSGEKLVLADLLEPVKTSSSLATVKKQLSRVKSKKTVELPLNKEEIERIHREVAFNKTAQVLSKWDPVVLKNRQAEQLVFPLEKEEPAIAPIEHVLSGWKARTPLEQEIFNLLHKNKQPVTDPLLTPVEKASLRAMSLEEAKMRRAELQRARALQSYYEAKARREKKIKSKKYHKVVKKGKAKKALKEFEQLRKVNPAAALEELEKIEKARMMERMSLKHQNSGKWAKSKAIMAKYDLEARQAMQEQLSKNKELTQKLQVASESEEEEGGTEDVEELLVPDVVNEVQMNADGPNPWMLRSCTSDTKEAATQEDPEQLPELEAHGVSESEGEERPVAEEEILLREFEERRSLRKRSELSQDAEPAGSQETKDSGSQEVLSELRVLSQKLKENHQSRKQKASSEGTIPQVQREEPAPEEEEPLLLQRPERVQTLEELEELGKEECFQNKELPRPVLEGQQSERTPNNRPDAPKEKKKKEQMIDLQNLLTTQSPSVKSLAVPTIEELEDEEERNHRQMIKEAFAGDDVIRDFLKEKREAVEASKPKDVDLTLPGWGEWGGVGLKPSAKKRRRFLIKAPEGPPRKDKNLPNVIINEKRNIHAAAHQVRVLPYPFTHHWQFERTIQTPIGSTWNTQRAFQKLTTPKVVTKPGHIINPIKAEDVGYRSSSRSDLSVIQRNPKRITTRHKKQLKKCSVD
UniProt Q7Z6J8: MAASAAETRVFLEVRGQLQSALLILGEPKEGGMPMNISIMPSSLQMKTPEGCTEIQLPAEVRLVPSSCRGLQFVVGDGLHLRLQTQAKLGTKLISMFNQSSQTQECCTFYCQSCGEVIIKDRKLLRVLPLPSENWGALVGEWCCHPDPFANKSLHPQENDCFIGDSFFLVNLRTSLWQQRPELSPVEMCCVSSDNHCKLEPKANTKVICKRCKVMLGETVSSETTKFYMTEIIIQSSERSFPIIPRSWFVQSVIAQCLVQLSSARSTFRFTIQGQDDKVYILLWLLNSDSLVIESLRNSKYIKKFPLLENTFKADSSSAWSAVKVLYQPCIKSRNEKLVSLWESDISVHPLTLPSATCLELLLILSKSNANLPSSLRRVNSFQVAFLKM
UniProt Q9UBK9, whole entry, looked up: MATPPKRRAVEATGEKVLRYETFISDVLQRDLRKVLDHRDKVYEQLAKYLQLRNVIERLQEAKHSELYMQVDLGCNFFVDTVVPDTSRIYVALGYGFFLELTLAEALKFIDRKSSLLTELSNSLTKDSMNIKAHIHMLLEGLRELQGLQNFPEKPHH
UniProt Q9NYU1: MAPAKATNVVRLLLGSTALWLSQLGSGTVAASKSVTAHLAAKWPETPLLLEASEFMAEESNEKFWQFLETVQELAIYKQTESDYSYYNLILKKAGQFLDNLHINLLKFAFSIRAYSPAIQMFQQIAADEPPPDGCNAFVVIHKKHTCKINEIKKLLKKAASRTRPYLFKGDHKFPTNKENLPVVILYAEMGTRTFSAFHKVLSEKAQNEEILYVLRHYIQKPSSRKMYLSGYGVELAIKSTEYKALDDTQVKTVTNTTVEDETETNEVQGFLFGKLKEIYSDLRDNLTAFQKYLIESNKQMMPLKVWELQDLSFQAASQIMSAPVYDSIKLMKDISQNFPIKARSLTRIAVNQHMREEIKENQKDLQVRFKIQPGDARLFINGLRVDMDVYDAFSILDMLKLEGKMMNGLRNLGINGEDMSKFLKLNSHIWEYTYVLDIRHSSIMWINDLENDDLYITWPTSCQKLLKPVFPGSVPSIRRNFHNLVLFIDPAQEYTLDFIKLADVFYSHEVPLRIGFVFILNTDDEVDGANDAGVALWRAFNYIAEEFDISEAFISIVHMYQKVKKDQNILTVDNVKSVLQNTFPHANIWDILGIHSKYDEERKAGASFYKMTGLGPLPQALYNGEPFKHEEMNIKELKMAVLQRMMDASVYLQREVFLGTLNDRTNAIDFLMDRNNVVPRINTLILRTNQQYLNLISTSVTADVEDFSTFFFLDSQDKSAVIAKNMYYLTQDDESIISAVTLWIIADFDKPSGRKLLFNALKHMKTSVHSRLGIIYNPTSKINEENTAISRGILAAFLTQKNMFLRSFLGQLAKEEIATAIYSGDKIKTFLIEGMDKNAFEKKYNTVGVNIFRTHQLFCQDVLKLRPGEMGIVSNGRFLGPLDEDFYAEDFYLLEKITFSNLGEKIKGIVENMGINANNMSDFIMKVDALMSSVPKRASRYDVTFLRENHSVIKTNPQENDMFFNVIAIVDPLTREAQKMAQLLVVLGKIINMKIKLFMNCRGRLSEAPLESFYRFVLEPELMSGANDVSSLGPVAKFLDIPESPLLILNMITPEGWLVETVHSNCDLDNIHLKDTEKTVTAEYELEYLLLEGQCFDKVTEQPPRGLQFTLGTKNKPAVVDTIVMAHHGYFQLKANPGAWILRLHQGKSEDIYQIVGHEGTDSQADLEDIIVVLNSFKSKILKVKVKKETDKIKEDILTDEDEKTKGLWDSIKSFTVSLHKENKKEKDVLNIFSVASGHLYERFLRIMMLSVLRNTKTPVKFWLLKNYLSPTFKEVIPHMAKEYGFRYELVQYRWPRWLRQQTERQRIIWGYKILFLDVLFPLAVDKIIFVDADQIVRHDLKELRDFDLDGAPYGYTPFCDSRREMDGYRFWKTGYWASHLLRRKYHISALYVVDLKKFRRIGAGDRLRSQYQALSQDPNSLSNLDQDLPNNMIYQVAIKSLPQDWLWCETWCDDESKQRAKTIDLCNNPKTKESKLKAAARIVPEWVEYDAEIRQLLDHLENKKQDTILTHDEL
UniProt Q9NRR5, whole entry, looked up: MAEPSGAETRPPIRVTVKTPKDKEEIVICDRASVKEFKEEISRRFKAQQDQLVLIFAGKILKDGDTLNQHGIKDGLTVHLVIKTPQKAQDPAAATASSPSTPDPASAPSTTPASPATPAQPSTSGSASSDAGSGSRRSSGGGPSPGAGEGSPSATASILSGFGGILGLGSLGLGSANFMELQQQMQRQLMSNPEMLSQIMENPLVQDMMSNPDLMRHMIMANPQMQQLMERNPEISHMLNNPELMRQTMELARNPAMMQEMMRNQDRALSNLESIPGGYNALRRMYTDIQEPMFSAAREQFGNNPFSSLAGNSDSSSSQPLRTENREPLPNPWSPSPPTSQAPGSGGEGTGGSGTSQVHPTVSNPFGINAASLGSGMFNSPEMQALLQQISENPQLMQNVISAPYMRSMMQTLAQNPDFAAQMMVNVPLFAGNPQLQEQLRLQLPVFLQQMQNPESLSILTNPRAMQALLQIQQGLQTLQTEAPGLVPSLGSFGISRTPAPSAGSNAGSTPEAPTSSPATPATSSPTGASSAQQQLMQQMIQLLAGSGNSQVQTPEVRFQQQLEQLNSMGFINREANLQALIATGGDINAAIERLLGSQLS
UniProt Q9H3U1: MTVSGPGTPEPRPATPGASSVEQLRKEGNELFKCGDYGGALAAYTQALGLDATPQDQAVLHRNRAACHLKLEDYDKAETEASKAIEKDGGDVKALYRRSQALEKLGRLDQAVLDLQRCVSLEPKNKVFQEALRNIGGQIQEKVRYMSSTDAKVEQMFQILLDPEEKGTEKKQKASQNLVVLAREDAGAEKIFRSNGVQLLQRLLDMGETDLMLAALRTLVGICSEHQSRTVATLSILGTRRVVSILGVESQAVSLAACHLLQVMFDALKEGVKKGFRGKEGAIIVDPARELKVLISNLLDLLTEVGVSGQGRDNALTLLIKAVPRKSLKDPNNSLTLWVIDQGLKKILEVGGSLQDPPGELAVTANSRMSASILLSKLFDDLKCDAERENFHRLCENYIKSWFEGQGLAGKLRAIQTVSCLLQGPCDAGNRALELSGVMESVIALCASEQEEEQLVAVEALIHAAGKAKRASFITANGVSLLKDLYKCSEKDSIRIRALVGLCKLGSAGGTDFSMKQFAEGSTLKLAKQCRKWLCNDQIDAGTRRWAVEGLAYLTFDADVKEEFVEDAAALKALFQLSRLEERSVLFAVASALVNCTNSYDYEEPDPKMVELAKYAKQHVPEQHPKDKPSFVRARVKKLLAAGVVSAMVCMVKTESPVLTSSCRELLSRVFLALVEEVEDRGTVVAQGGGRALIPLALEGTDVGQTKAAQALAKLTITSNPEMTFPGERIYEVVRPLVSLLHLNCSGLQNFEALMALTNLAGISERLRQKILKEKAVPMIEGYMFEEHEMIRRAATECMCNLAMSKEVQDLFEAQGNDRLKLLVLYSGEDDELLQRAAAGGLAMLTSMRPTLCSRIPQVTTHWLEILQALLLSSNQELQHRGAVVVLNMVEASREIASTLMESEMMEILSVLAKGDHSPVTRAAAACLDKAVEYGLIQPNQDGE

[1] = compound: Cc1cccc(CC(=O)N2CCc3c2ccc(-c2cn(C)c4ncnc(N)c24)c3F)n1
How it was run: as §1

nilotinib = compound: Cc1cn(-c2cc(NC(=O)c3ccc(C)c(Nc4nccc(-c5cccnc5)n4)c3)cc(C(F)(F)F)c2)cn1 [nilotinib]
How it was run: as §1

[2] = compound: Cc1nc(Nc2n[nH]c3c2CN(C(=O)N[C@H](CN(C)C)c2ccccc2)C3(C)C)c2sccc2n1
How it was run: as §1

dasatinib = compound: Cc1nc(Nc2ncc(C(=O)Nc3c(C)cccc3Cl)s2)cc(N2CCN(CCO)CC2)n1 [dasatinib]
How it was run: as §1

[3] = compound: Cc1ncc(-c2ccnc(Nc3ccc(S(C)(=O)=O)cc3)n2)n1C(C)C
How it was run: as §1

[4] = compound: Cn1cc(-c2ccc3c(c2)CCN3C(=O)Cc2cccc(C(F)(F)F)c2)c2c(N)ncnc21
How it was run: as §1

[5] = compound: Cn1cc(-c2ccc3nnc(C(F)(F)c4ccc5ncccc5c4)n3n2)cn1
How it was run: as §1

tipifarnib = compound: Cn1cncc1[C@@](N)(c1ccc(Cl)cc1)c1ccc2c(c1)c(-c1cccc(Cl)c1)cc(=O)n2C [tipifarnib]
How it was run: as §1

mubritinib = compound: FC(F)(F)c1ccc(/C=C/c2nc(COc3ccc(CCCCn4ccnn4)cc3)co2)cc1 [mubritinib]
How it was run: as §1

[6] = compound: NC(=O)Nc1cc(-c2cccc(F)c2)sc1C(=O)N[C@H]1CCCNC1
How it was run: as §1

[7] = compound: NC(=O)c1cnc(N[C@@H]2CCCC[C@@H]2N)nc1Nc1cccc(-n2nccn2)c1
How it was run: as §1

[8] = compound: NC1(c2ccc(-c3nc4ccn5c(=O)[nH]nc5c4cc3-c3ccccc3)cc2)CCC1
How it was run: as §1

[9] = compound: NCC(=O)Nc1ccc(-n2nc(C(F)(F)F)cc2-c2ccc3c(ccc4ccccc43)c2)cc1
How it was run: as §1

entinostat = compound: Nc1ccccc1NC(=O)c1ccc(CNC(=O)OCc2cccnc2)cc1 [entinostat]
How it was run: as §1

vorinostat = compound: O=C(CCCCCCC(=O)Nc1ccccc1)NO [vorinostat]
How it was run: as §1

citarinostat = compound: O=C(CCCCCCNC(=O)c1cnc(N(c2ccccc2)c2ccccc2Cl)nc1)NO [citarinostat]
How it was run: as §1

silmitasertib = compound: O=C(O)c1ccc2c(c1)nc(Nc1cccc(Cl)c1)c1ccncc12 [silmitasertib]
How it was run: as §1

[10] = compound: O=C1NC(=O)C(c2cnc3ccccn23)=C1c1cn2c3c(cc(F)cc13)CN(C(=O)N1CCCCC1)CC2
How it was run: as §1

[11] = compound: c1cc(OCCN2CCCCC2)cc(-c2n[nH]c3ccc(-c4nnc[nH]4)cc23)c1
How it was run: as §1

Measured: log2 fold change

VAMP2 (UniProt P63027)
inactive: bafetinib 0.045 | [1] 0.065 | nilotinib 0.014 | [2] 0.014 | dasatinib -0.042 | [3] 0.017 | [4] 0.234 | [5] 0.009 | tipifarnib -0.132 | mubritinib 0.04 | [6] 0.225 | [7] 0.259 | [8] -0.008 | [9] 0.061 | entinostat 0.163 | vorinostat 0.091 | citarinostat 0.148 | silmitasertib 0.015 | [10] 0.169 | [11] 0.117

UNC13D isoform 3 (UniProt Q70J99)
inactive: bafetinib 0.293 | [1] -0.022 | nilotinib -0.213 | [2] -0.353 | dasatinib -0.071 | [3] 0.244 | [4] -0.141 | [5] -0.145 | tipifarnib 0.011 | mubritinib -0.095 | [6] -0.005 | [7] -0.023 | [8] -0.019 | [9] -0.033 | entinostat 0.063 | vorinostat -0.086 | citarinostat 0.013 | silmitasertib 0.095 | [10] 0.18 | [11] -0.04

VANGL1 (UniProt Q8TAA9)
inactive: bafetinib 0.077 | [1] 0.03 | nilotinib 0 | [2] -0.263 | dasatinib 0.004 | [3] 0.006 | [4] -0.008 | [5] -0.108 | tipifarnib 0.016 | mubritinib 0.01 | [6] -0.138 | [7] 0.058 | [8] 0.027 | [9] -0.088 | entinostat -0.066 | vorinostat -0.095 | citarinostat -0.1 | silmitasertib 0.099 | [10] 0.118 | [11] -0.452

UBL4A (UniProt P11441)
inactive: bafetinib -0.033 | [1] -0.001 | nilotinib -0.041 | [2] 0.005 | dasatinib -0.022 | [3] 0.022 | [4] -0.009 | [5] 0.024 | tipifarnib -0.041 | mubritinib 0.017 | [6] -0.024 | [7] -0.025 | [8] -0.105 | [9] -0.013 | entinostat 0.076 | vorinostat 0.016 | citarinostat 0.073 | silmitasertib 0.047 | [10] -0.013 | [11] -0.043

USO1 isoform 2 (UniProt O60763)
inactive: bafetinib -0.055 | [1] 0.036 | nilotinib -0.039 | [2] -0.024 | dasatinib -0.052 | [3] 0.032 | [4] -0.017 | [5] -0.003 | tipifarnib -0.068 | mubritinib 0.032 | [6] -0.009 | [7] 0 | [8] -0.101 | [9] -0.024 | entinostat 0.032 | vorinostat 0.018 | citarinostat 0.032 | silmitasertib 0.059 | [10] -0.035 | [11] -0.013

UBFD1 (UniProt O14562)
inactive: bafetinib -0.048 | [1] 0.031 | nilotinib -0.009 | [2] 0.004 | dasatinib 0 | [3] -0.017 | [4] 0.016 | [5] 0.018 | tipifarnib -0.024 | mubritinib 0.024 | [6] -0.02 | [7] -0.061 | [8] -0.108 | [9] -0.029 | entinostat 0.021 | vorinostat 0.016 | citarinostat 0.048 | silmitasertib 0.036 | [10] -0.055 | [11] 0.002

UTP14A (UniProt Q9BVJ6)
inactive: bafetinib 0.157 | [1] 0 | nilotinib 0.011 | [2] -0.009 | dasatinib 0.07 | [3] -0.118 | [4] -0.285 | [5] -0.09 | tipifarnib 0.089 | mubritinib -0.086 | [6] 0.079 | [7] 0.048 | [8] 0.083 | [9] 0.076 | entinostat 0.012 | vorinostat 0 | citarinostat -0.04 | silmitasertib 0.128 | [10] 0.082 | [11] -0.092

UROS (UniProt P10746)
inactive: bafetinib -0.022 | [1] 0.026 | nilotinib -0.022 | [2] -0.125 | dasatinib -0.085 | [3] 0.002 | [4] 0.099 | [5] -0.054 | tipifarnib -0.064 | mubritinib 0.015 | [6] -0.008 | [7] 0.025 | [8] -0.027 | [9] -0.05 | entinostat 0.023 | vorinostat 0.053 | citarinostat 0.06 | silmitasertib -0.015 | [10] -0.033 | [11] -0.003

Quoted from above (3 entries):
USO1 isoform 2 (UniProt O60763)
inactive: bafetinib -0.055 | [1] 0.036 | nilotinib -0.039 | [2] -0.024 | dasatinib -0.052 | [3] 0.032 | [4] -0.017 | [5] -0.003 | tipifarnib -0.068 | mubritinib 0.032 | [6] -0.009 | [7] 0 | [8] -0.101 | [9] -0.024 | entinostat 0.032 | vorinostat 0.018 | citarinostat 0.032 | silmitasertib 0.059 | [10] -0.035 | [11] -0.013

UBFD1 (UniProt O14562)
inactive: bafetinib -0.048 | [1] 0.031 | nilotinib -0.009 | [2] 0.004 | dasatinib 0 | [3] -0.017 | [4] 0.016 | [5] 0.018 | tipifarnib -0.024 | mubritinib 0.024 | [6] -0.02 | [7] -0.061 | [8] -0.108 | [9] -0.029 | entinostat 0.021 | vorinostat 0.016 | citarinostat 0.048 | silmitasertib 0.036 | [10] -0.055 | [11] 0.002

UTP14A (UniProt Q9BVJ6)
inactive: bafetinib 0.157 | [1] 0 | nilotinib 0.011 | [2] -0.009 | dasatinib 0.07 | [3] -0.118 | [4] -0.285 | [5] -0.09 | tipifarnib 0.089 | mubritinib -0.086 | [6] 0.079 | [7] 0.048 | [8] 0.083 | [9] 0.076 | entinostat 0.012 | vorinostat 0 | citarinostat -0.04 | silmitasertib 0.128 | [10] 0.082 | [11] -0.092

More entries follow.

UBE3D (UniProt Q7Z6J8)
inactive: bafetinib -0.036 | [1] -0.047 | nilotinib 0.043 | [2] -0.001 | dasatinib -0.071 | [3] 0.037 | [4] 0.003 | [5] 0.013 | tipifarnib -0.049 | mubritinib 0.009 | [6] -0.019 | [7] 0.012 | [8] -0.004 | [9] 0.027 | entinostat 0.074 | vorinostat 0.056 | citarinostat 0.012 | silmitasertib 0.067 | [10] -0.032 | [11] -0.164

VAMP4 (UniProt O75379)
inactive: bafetinib -0.086 | [1] -0.025 | nilotinib 0.011 | [2] -0.008 | dasatinib 0.05 | [3] -0.049 | [4] 0.013 | [5] 0.062 | tipifarnib 0.06 | mubritinib 0.063 | [6] -0.043 | [7] -0.006 | [8] -0.12 | [9] 0.085 | entinostat -0.052 | vorinostat 0.007 | citarinostat 0.025 | silmitasertib 0.058 | [10] -0.08 | [11] -0.021

UXT isoform 2 (UniProt Q9UBK9)
inactive: bafetinib 0.016 | [1] 0.036 | nilotinib 0.04 | [2] -0.068 | dasatinib -0.033 | [3] 0.001 | [4] 0.11 | [5] 0.026 | tipifarnib -0.144 | mubritinib 0.014 | [6] -0.041 | [7] -0.067 | [8] -0.108 | [9] -0.011 | entinostat 0.004 | vorinostat 0.047 | citarinostat 0.129 | silmitasertib -0.033 | [10] -0.051 | [11] 0.007

USP25 isoform 3 (UniProt Q9UHP3)
inactive: bafetinib -0.043 | [1] 0.029 | nilotinib -0.021 | [2] -0.017 | dasatinib -0.048 | [3] 0.018 | [4] -0.038 | [5] 0.009 | tipifarnib -0.024 | mubritinib 0.023 | [6] -0.038 | [7] -0.027 | [8] -0.071 | [9] -0.067 | entinostat 0.001 | vorinostat -0.019 | citarinostat -0.021 | silmitasertib 0.051 | [10] -0.03 | [11] 0.011

UGGT2 (UniProt Q9NYU1)
inactive: bafetinib 0.043 | [1] -0.037 | nilotinib -0.011 | [2] 0.015 | dasatinib 0.053 | [3] 0.086 | [4] -0.036 | [5] 0.02 | tipifarnib 0.046 | mubritinib 0.04 | [6] -0.083 | [7] -0.089 | [8] -0.055 | [9] -0.032 | entinostat -0.034 | vorinostat -0.019 | citarinostat -0.11 | silmitasertib -0.035 | [10] 0.095 | [11] -0.23

UBQLN4 (UniProt Q9NRR5)
inactive: bafetinib -0.033 | [1] -0.038 | nilotinib 0.019 | [2] -0.005 | dasatinib 0.063 | [3] 0.001 | [4] 0.009 | [5] -0.026 | tipifarnib 0.011 | mubritinib 0.015 | [6] 0.031 | [7] 0.059 | [8] 0.095 | [9] 0.028 | entinostat 0.023 | vorinostat -0.031 | citarinostat 0.01 | silmitasertib 0.002 | [10] 0.021 | [11] -0.028

USP8 (UniProt P40818)
inactive: bafetinib 0.016 | [1] 0.063 | nilotinib -0.004 | [2] -0.029 | dasatinib -0.24 | [3] 0.076 | [4] 0.052 | [5] -0.04 | tipifarnib -0.089 | mubritinib 0.018 | [6] -0.074 | [7] -0.077 | [8] -0.085 | [9] -0.051 | entinostat 0.056 | vorinostat 0.038 | citarinostat 0.067 | silmitasertib 0.114 | [10] 0.039 | [11] -0.034

UNC45A (UniProt Q9H3U1)
inactive: bafetinib 0.101 | [1] 0.1 | nilotinib -0.13 | [2] -0.126 | dasatinib -0.111 | [3] 0.057 | [4] -0.046 | [5] -0.043 | tipifarnib -0.117 | mubritinib -0.047 | [6] -0.019 | [7] -0.041 | [8] -0.086 | [9] -0.03 | entinostat 0.051 | vorinostat 0.115 | citarinostat 0.027 | silmitasertib 0.068 | [10] 0.161 | [11] -0.047
